No constants are given. Whether binding was seen depends on the method and setting. Binding calls can cover weak binding; strength is not graded here.
How the values were obtained:
[1] = target: VvSLY1b (Vitis vinifera); test: two-hybrid; S. cerevisiae L40; VvSLY1 as LexA DNA-BD bait, VvDELLA as GAL4 AD prey; growth on 3-AT and beta-galactosidase liquid assay
[2] = target: VvSLY1a (Vitis vinifera); test: as above

- binding [1]: binds
- binding [2]: binds
B1: VvDELLA1 (protein, UniProt Q8S4W7 1-590)
chain: MKREYHHPHHPTCSTSPTGKGKMWDADPQQDAGMDELLAVLGYNVKASDMAEVAQKLEQLEEVIVNAQEDGLSHLASETVHYNPSDLSNWLGSMLSEFNPTPNCALDNPFLPPISPLDYTNCSTQPKQEPSIFDSPSLDYDLKAIPGKALYSHIEQPPQQPPAPPLYQRDNKRLKPTTSATANSVSSVIGGWGVPTESARPVVLVDSQETGIRLVHTLMACAEAVQQENLKLAEALVKQIGFLAVSQAGAMRKVATYFAEGLARRIYRLYPDKPLDSSFSDILQMHFYETCPYLKFAHFTANQAILEAFEGKKRVHVIDFSMKQGMQWPALMQALALRPGGPPSFRLTGIGPPSTDNTDHLHEVGWKLAQLAETIHVEFEYRGFVANSLADLDASMLELRDGESVAVNSVFELHSLLARPGGIERVLSAVKDMKPDIVTIVEQEANHNGPVFLDRFTESLHYYSTLFDSLEGCGVSPVNTQDKLMSEVYLGQQICNVVACEGPERVERHETLAQWRARLGSAGFDPVNLGSNAFKQASMLLALFAGGDGYRVEENNGCLMLGWHTRPLIATSAWQLANKPALPSSTPASN

Source: paper PMC4339604
